Here are results for one molecule from article PMC10778626, “Efficacy of Novel Quaternary Ammonium and Phosphonium Salts Differing in Cation Type and Alkyl Chain Length against Antibiotic-Resistant Staphylococcus aureus” (International Journal of Molecular Sciences, 2023).

The test system of the experiment is S. aureus CECT 976. The experiment can be described thus: MIC/MBC by broth microdilution, S. aureus CECT 976. Type of experiment: cell-based. The conditions noted are these: Staphylococcus aureus, CECT976, 24 h. As to the method:
The minimum inhibitory concentration (MIC) and minimum bactericidal concentration (MBC) values of all QHSs were determined by the broth microdilution method, according to the approved M7-A7 (aerobes) standards of the Clinical and Laboratory Standards Institute (CLSI) guidelines. Overnight cell cultures of S. aureus, in the exponential phase of growth, were adjusted to an optical density (OD) of 0.132 ± 0.02 (λ = 600 nm). Then, a volume of 180 µL of the cell suspension was added to sterile, flat, clear-bottomed polystyrene (PS) 96-well microtiter plates (VWR—Radnor, PA, USA), already containing 20 µL of each QHS under study at concentrations ranging from 0.0625 to 64 µg/mL. In the end, the volume of each compound never exceeded 10% (v/v) of the well volume. Microtiter plates were then incubated for 24 h at 37 °C under agitation (150 rpm; INCU-Line IL 150R incubator). Absorbance measurements were performed at the beginning (t = 0 h) and end (t = 24 h) of the incubation period using a microtiter plate absorbance reader (BMG LABTECH FLUOstar Omega). Bacterial suspensions with DMSO and without QHSs were used as negative controls. […]
Plates were incubated at 37 °C for 24 h, and growth was visually inspected. The MBC was determined as the lowest concentration of compound in which the total inhibition of growth on solid medium was observed (no colony forming units (CFUs) were detected). […]

For orientation: MIC means the smallest concentration in the dilution series that meets the test's criterion for growth inhibition. The low end stands for greater potency, the high end for weaker potency. Molecule `CCCCCCCCCCCCCCCC[n+]1ccccc1.[Br-]` [Compound 6f, 1-Hexadecylpyridin-1-ium bromide] gave a minimal inhibitory concentration (MIC) of 4 µg/mL.
